{"source": "PubChem BioAssay AID504834", "about": "(National Center for Advancing Translational Sciences (NCATS), 2011)", "note": "In all, about 320,000 compounds went through this assay and about 22,000 (6.9%) were called active. The shares of active, inactive and inconclusive entries below differ from those in the screen. The call rests on the fitted dose curve; in most records, active means well fitted inhibition curve with a large enough effect; inconclusive means small, poorly fitted or top-dose-only effect, or another doubt; inactive means no such curve, though single readings can be large or run the other way. Potencies beside an inconclusive call are fits to weak or partial responses and may not hold up. On the % scale 0 is the no-effect control and ±100 the full control effect; potency means the concentration at half of the fitted maximal effect."}
{"assay": "Primary qHTS for delayed death inhibitors of the malarial parasite plastid, 96 hour incubation", "conditions": "P. falciparum luciferase reporter growth; series mostly up to 28.7 µM; activity change, negative = inhibition: at the top concentration", "in_short": "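Readout is luminescence from an integrated firefly luciferase in P. falciparum. Red cells, 2% hematocrit and 0.05% parasitemia final, were cultured with compound through two parasite generations (96 hours) at 37 C, 5% CO2.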"}
{"molecule": "Cc1ccn2cc(-c3ccc(NC(=O)c4ccco4)cc3)nc2c1", "activity change, negative = inhibition": "inactive: -76.6%"}
{"molecule": "COCc1nc2ccccc2n1CCc1ccccc1", "Potency": "inconclusive: 16.5 µM [inhibitor, single point]"}
{"molecule": "CS(=O)(=O)N(CC(=O)Nc1ccccc1C(=O)N1CCCC1)c1ccccc1Br", "Potency": "inconclusive: 20.8 µM [inhibitor, single point]"}
{"molecule": "CNc1cc(CSc2ccc(Cl)cc2)nc(C)n1", "activity change, negative = inhibition": "inactive: 180%"}
{"molecule": "COc1ccc(C2=NOC(C(=O)Nc3ccc4c(c3)OCO4)C2)cc1", "note": "(stereo not given)", "Potency": "inconclusive: 18.5 µM [inhibitor, single point]"}
{"molecule": "O=C(N/N=C/c1ccc([N+](=O)[O-])o1)c1ccccc1NS(=O)(=O)c1cccs1", "Potency": "inconclusive: 18.5 µM [inhibitor, single point]"}
{"molecule": "COc1ncccc1C(=O)N1CCCC(C(=O)c2cc(F)ccc2F)C1", "note": "(stereo not given)", "activity change, negative = inhibition": "inactive: -3.77%"}
{"molecule": "O=C(N/N=C/c1cccc([N+](=O)[O-])c1)c1ccc(COc2ccccc2-c2ccccc2)cc1", "Potency": "inconclusive: 5.22 µM [inhibitor, partial curve, poor fit]"}
{"molecule": "NC(=S)Nc1nc2ccccc2s1", "Potency": "inconclusive: 18.5 µM [inhibitor, single point]"}
{"molecule": "C[C@@H]1CC2C3CCC4=CC(=O)C=C[C@]4(C)[C@@]3(F)[C@@H](O)C[C@]2(C)[C@@]1(O)C(=O)COC(=O)c1cccc(S(=O)(=O)O)c1", "note": "(stereo not given in full)", "activity change, negative = inhibition": "inactive: 0.992%"}
{"molecule": "CC(C)OCCCn1c(NN)nc2ccccc2c1=O", "Potency": "inconclusive: 18.5 µM [inhibitor, single point]"}
{"molecule": "CCCCC(=O)Nc1ccc(C(=O)NNC(=O)c2cccs2)cc1", "Potency": "inconclusive: 10.4 µM [inhibitor, single point]"}
{"molecule": "Cc1cccc(C)c1-n1nnnc1-c1cnccc1C(F)(F)F", "Potency": "inconclusive: 18.5 µM [inhibitor, single point]"}
{"molecule": "CCOC(=O)C1=C(C)N(C)C2(C)CC1c1ccccc1O2", "note": "(stereo not given)", "Potency": "inconclusive: 0.465 µM [inhibitor, partial curve, poor fit]"}
{"molecule": "COc1ccccc1C1=NOC(C(=O)N2CCN(C(=O)c3ccco3)CC2)C1", "note": "(stereo not given)", "Potency": "inconclusive: 18.5 µM [inhibitor, single point]"}
{"molecule": "CC1(c2nnc(-c3cccc(Cl)c3)o2)CC(c2ccc(OC(F)(F)F)cc2)=NO1", "note": "(stereo not given)", "activity change, negative = inhibition": "inactive: 140%"}
{"molecule": "COc1cc2c(cc1OC)CN(C(=O)CN1CCN(S(=O)(=O)c3ccc(C)c(C)c3)CC1)CC2", "Potency": "active: 13.1 µM"}
{"molecule": "CC(C)NC(=S)N/N=C1\\CCCc2ccccc21", "Potency": "inconclusive: 13.1 µM [inhibitor, single point]"}
{"molecule": "COc1ccc(NC(=O)c2cc(S(=O)(=O)N3CCCCC3)ccc2OC)cc1", "Potency": "inconclusive: 10.4 µM [inhibitor, single point]"}
{"molecule": "COCC1CCN(C(=O)c2ccc(OC)c(OC3CCN(C(C)C)CC3)c2)CC1", "Potency": "active: 3.29 µM"}
{"molecule": "Cc1ccc(Oc2nc(CN3CCOCC3)nc3sc4c(c23)CCC(C)C4)cc1C", "note": "(stereo not given)", "Potency": "inconclusive: 13.1 µM [inhibitor, partial curve]"}
{"molecule": "C=CCN=c1scc(-c2ccc(F)cc2)n1/N=C/c1ccccn1", "Potency": "inconclusive: 8.28 µM [inhibitor, single point]"}
{"molecule": "Cc1cc(C)cc(OCC(=O)NNC(=O)c2cc(C)[nH]n2)c1", "Potency": "inconclusive: 0.329 µM [inhibitor, full curve]"}
{"molecule": "COc1cc(C(=O)c2ccccc2Cl)c([N+](=O)[O-])cc1OC", "activity change, negative = inhibition": "inactive: 14.3%"}
{"molecule": "NNC(=O)c1cc2c(N3CCC(Cc4ccccc4)CC3)ncnc2s1", "Potency": "inconclusive: 18.5 µM [inhibitor, single point]"}
{"molecule": "O=C1C=C(c2cc(F)ccc2F)C[C@@H](c2ccc(F)cc2)C1", "Potency": "inconclusive: 9.28 µM [inhibitor, single point]"}
{"molecule": "COc1cc(C(=O)NCC(=O)Nc2c(C)cccc2C)ccc1OCc1ccccc1", "activity change, negative = inhibition": "inactive: -49.6%"}
{"molecule": "NC(=S)N/N=C/c1ccccc1O", "Potency": "active: 1.04 µM"}
{"molecule": "O=C1C2C3C=CC(C2C(=O)N1CCCO)C1C2C(=O)N(CCCO)C(=O)C2C31", "note": "(stereo not given)", "activity change, negative = inhibition": "inactive: -7.34%"}
{"molecule": "Cc1ccccc1OCC(=O)O/N=C(\\N)Cc1cccs1", "Potency": "inconclusive: 10.4 µM [inhibitor, single point]"}
{"molecule": "O=C(Nc1ccc(CN2CCCCC2)cc1)c1cccc(Br)c1", "Potency": "inconclusive: 14.7 µM [inhibitor, single point]"}
{"molecule": "Cc1ccc(-c2cc(C(=O)Nc3nccs3)c3ccccc3n2)o1", "Potency": "active: 9.28 µM"}
{"molecule": "COc1ccc2c(c1)c(=O)cc(C)n2CC(=O)NCc1ccco1", "Potency": "inconclusive: 18.5 µM [inhibitor, single point]"}
{"molecule": "COc1cc(C(=O)OCC(=O)N2CCCCC2C)ccc1OCc1c(C)noc1C", "note": "(stereo not given)", "Potency": "inconclusive: 3.29 µM [inhibitor, partial curve, poor fit]"}
{"molecule": "NC(=O)N/N=C(/CCCCCC/C(=N\\NC(N)=O)c1ccccc1)c1ccccc1", "Potency": "inconclusive: 18.5 µM [inhibitor, single point]"}
{"molecule": "COc1ccc(C2=NCCn3cccc32)c(OC)c1", "Potency": "inconclusive: 10.4 µM [inhibitor, single point]"}
{"molecule": "O=Nc1c2nc3ccccc3n(O)c-2c2ccccc12", "Potency": "inconclusive: 18.5 µM [inhibitor, single point]"}
{"molecule": "CCOCCCNc1nc(-c2ccccc2)nc2ccccc12", "Potency": "inconclusive: 6.57 µM [inhibitor, partial curve]"}
{"molecule": "Clc1ccc(-n2cnnn2)cc1", "Potency": "inconclusive: 10.4 µM [inhibitor, single point]"}
{"molecule": "Fc1ccc(C(c2nnnn2Cc2cccs2)N2CCN(C3CCCCC3)CC2)cc1", "note": "(stereo not given)", "Potency": "inconclusive: 7.38 µM [inhibitor, partial curve, poor fit]"}
{"molecule": "COc1ccc(CNC(=O)OCc2nccnc2C(=O)Nc2ccc(Br)cn2)cc1", "Potency": "inconclusive: 2.33 µM [inhibitor, single point]"}
{"molecule": "O=C(c1cc2ccccc2s1)N1CCOCC1", "activity change, negative = inhibition": "inactive: -0.892%"}
{"molecule": "CC(NC(=O)CN1CCCC1)C12CC3CC(CC(C3)C1)C2", "note": "(stereo not given)", "Potency": "inconclusive: 18.5 µM [inhibitor, single point]"}
{"molecule": "Fc1ccccc1CSc1ccc(-c2ccco2)nn1", "activity change, negative = inhibition": "inactive: 180%"}
{"molecule": "COc1ccc(C(CNC(=O)c2ccc(NS(=O)(=O)c3ccccc3)cc2)N2CCOCC2)cc1", "note": "(stereo not given)", "Potency": "inconclusive: 18.5 µM [inhibitor, single point]"}
{"molecule": "Cn1c(N)c(C(=O)COC(=O)c2ccc(Cl)c(S(=O)(=O)N3CCCC3)c2)c(=O)n(C)c1=O", "Potency": "inconclusive: 13.1 µM [inhibitor, partial curve, poor fit]"}
{"molecule": "CS(=O)(=O)N1CCN(c2ccc(NC(=O)c3ccc(-c4ccc(Cl)cc4)o3)cc2)CC1", "Potency": "inconclusive: 10.4 µM [inhibitor, single point]"}
{"molecule": "CCC(C)C(NC(=O)c1ccc(Cl)cc1Cl)C(=O)O", "note": "(stereo not given)", "Potency": "inconclusive: 18.5 µM [inhibitor, single point]"}
{"molecule": "COc1ccc2nc(N3CCC(O)CC3)c(C#N)cc2c1", "activity change, negative = inhibition": "inactive: -3.65%"}
{"molecule": "COc1ccc(C(=O)N2CCCC(Nc3ccc(C)c(C)c3)C2)c(OC)n1", "note": "(stereo not given)", "activity change, negative = inhibition": "inactive: -17.7%"}
{"molecule": "CC(C)OCCOc1ccc2oc(-c3ccco3)cc(=O)c2c1", "activity change, negative = inhibition": "inactive: 19.8%"}
{"molecule": "COCCn1c(C)cc(C(=O)CSc2cc(C)c3ccc(OC)cc3n2)c1C", "Potency": "inconclusive: 10.4 µM [inhibitor, single point]"}
{"molecule": "Cc1c(-c2ccccc2)oc2c(C(=O)OCCN3CCCCC3)cccc2c1=O", "Potency": "inconclusive: 1.44 µM [inhibitor, single point]"}
{"molecule": "O=C(CN1CCN(Cc2ccccc2)C1=O)NCCCN1CCOCC1", "Potency": "active: 2.94 µM"}
{"molecule": "Cc1nn(Cc2ccccc2)c(Cl)c1/C=C/C(=O)OCC(=O)N(C)C1CCS(=O)(=O)C1", "note": "(stereo not given)", "Potency": "inconclusive: 0.0026 µM [inhibitor, full curve, poor fit]"}
{"molecule": "Cc1cc(Cl)cc(Cl)c1OCC(=O)NCc1ccco1", "Potency": "inconclusive: 18.5 µM [inhibitor, single point]"}
{"molecule": "CC1(C)C2CCC1(CS(=O)(=O)Nc1ccc(S(=O)(=O)N3CCCC3)cc1)C(=O)C2", "note": "(stereo not given)", "Potency": "inconclusive: 13.1 µM [inhibitor, single point]"}
{"molecule": "CCOc1ccc2c(c1)C(c1cccs1)=NNC(c1cccnc1)=N2", "activity change, negative = inhibition": "inactive: -19.2%"}
{"molecule": "COc1ccc(Nc2nnc(SCc3cn4c(C)cccc4n3)s2)cc1", "Potency": "inconclusive: 0.928 µM [inhibitor, full curve]"}
{"molecule": "O=C(CSc1cccc[n+]1[O-])NN(c1ccccc1)c1ccccc1", "activity change, negative = inhibition": "inactive: 16.8%"}
{"molecule": "Cn1nc(C(=O)NNc2c(F)c(F)cc(F)c2F)c2ccccc2c1=O", "Potency": "inconclusive: 18.5 µM [inhibitor, single point]"}
{"molecule": "Cc1ccc(O)c(C2=NCCNC(C(F)(F)C(F)F)=C2)c1", "Potency": "inconclusive: 10.4 µM [inhibitor, single point]"}
{"molecule": "O=C(NC(=S)NCC1CCCO1)C(c1ccccc1)c1ccccc1", "note": "(stereo not given)", "Potency": "inconclusive: 16.5 µM [inhibitor, single point]"}
{"molecule": "COc1ccc(OC)c(NC(=O)C2CCN(c3cc(-c4ccccc4)nc4ncnn34)CC2)c1", "activity change, negative = inhibition": "inactive: -21.6% [at 5.75 µM]"}
{"molecule": "Cc1occc1-c1nnc(SCc2nnc(-c3ccc(Cl)cc3)o2)n1C", "activity change, negative = inhibition": "inactive: -27.4%"}
{"molecule": "CCCc1[nH][nH]c(=O)c1C(c1cccc(Cl)c1)C(C#N)C#N", "note": "(stereo not given)", "Potency": "inconclusive: 18.5 µM [inhibitor, single point]"}
{"molecule": "O=C(Nc1cnc2ccccc2c1)c1cccc(-n2cnnn2)c1", "activity change, negative = inhibition": "inactive: -0.946% [at 5.75 µM]"}
{"molecule": "C=CCN(c1ccc(C(=O)N(CC)CC)cc1)S(C)(=O)=O", "Potency": "inconclusive: 18.5 µM [inhibitor, single point]"}
{"molecule": "Cc1cccc(C)c1OCc1cc(C(=O)N2CCN(c3ccc(F)cc3)CC2)no1", "Potency": "inconclusive: 18.5 µM [inhibitor, single point]"}
{"molecule": "Cn1cnnc1SCc1nnc(-c2ccccc2Br)o1", "activity change, negative = inhibition": "inactive: 22.1%"}
